PubChem BioAssay AID1259405 – NCATS | 2018
Test: 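Silenced genes that increase secreted GFP made by CHO cells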 (primary screen). Cell system: Chinese hamster CHO-K1 ovary cells with stable secreted eGFP expression. Knock-down reagent: single siRNA against mouse genes, 0.8 pmol siRNA per well (2 µl of 400 nM stock). Time to read-out: 3 days. Measurement: 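Per-well intracellular GFP measured by laser scanning cytometry, plus viability from ATP luminescence, each relative to plate median of non-targeting control wells, in %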. Scale: GFP, % of control: higher = more GFP per well, higher productivity; viability (ATP), % of control: higher = more viable cells (more ATP). Call rule: 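a knock-down is called active if GFP reaches 120% or more of non-targeting control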.
The whole screen tested about 50,000 reagents; this is a random part of them. About 4,000 of them (8%) were called active. 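Mouse siRNA library applied to hamster cells; one well for each siRNA.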 The numbers tell different reagents against one gene apart.

The first 2 entries, to show the layout:
target | siRNA no. | GFP, % of control | viability (ATP), % of control | Call
Clspn (claspin) | 1 | 136 | 119 | active
Clspn (claspin) | 2 | 29 | 63.3 | inactive

Main list, from the first entry:
target | siRNA no. | GFP, % of control | viability (ATP), % of control | Call
Clspn (claspin) | 1 | 136 | 119 | active
Clspn (claspin) | 2 | 29 | 63.3 | inactive
Clspn (claspin) | 3 | 95.5 | 89.8 | inactive
Aadac (arylacetamide deacetylase) | 1 | 79.6 | 75.7 | inactive
Aadac (arylacetamide deacetylase) | 2 | 81.2 | 74.8 | inactive
Aadac (arylacetamide deacetylase) | 3 | 29.7 | 55.1 | inactive
Syne4 (spectrin repeat containing, nuclear envelope family member 4) | 1 | 20.9 | 75.2 | inactive
Syne4 (spectrin repeat containing, nuclear envelope family member 4) | 2 | 112 | 117 | inactive
Syne4 (spectrin repeat containing, nuclear envelope family member 4) | 3 | 124 | 111 | active
Pcdhga3 (protocadherin gamma subfamily A, 3) | 1 | 65.5 | 72.5 | inactive
Pcdhga3 (protocadherin gamma subfamily A, 3) | 2 | 59.6 | 66.2 | inactive
Pcdhga3 (protocadherin gamma subfamily A, 3) | 3 | 0 | 75.6 | inactive
Osr2 (odd-skipped related 2) | 1 | 51.1 | 59.8 | inactive
Osr2 (odd-skipped related 2) | 2 | 81.3 | 86.1 | inactive
Osr2 (odd-skipped related 2) | 3 | 0 | 56.5 | inactive
Or8b57 (olfactory receptor family 8 subfamily B member 57) | 1 | 75.2 | 58.4 | inactive
Or8b57 (olfactory receptor family 8 subfamily B member 57) | 2 | 48.3 | 34.5 | inactive
Or8b57 (olfactory receptor family 8 subfamily B member 57) | 3 | 66.4 | 64.4 | inactive
Ptbp2 (polypyrimidine tract binding protein 2) | 1 | 31.3 | 48.2 | inactive
Ptbp2 (polypyrimidine tract binding protein 2) | 2 | 101 | 92.6 | inactive
Fastkd3 (FAST kinase domains 3) | 1 | 103 | 63.2 | inactive
Fastkd3 (FAST kinase domains 3) | 2 | 56.5 | 40.9 | inactive
Fastkd3 (FAST kinase domains 3) | 3 | 69.8 | 71.5 | inactive
Srfbp1 (serum response factor binding protein 1) | 1 | 55.8 | 56.7 | inactive
Srfbp1 (serum response factor binding protein 1) | 2 | 75.4 | 50.1 | inactive
Srfbp1 (serum response factor binding protein 1) | 3 | 84.9 | 66.3 | inactive
Serpina3c (serine (or cysteine) peptidase inhibitor, clade A, member 3C) | 1 | 60.1 | 59 | inactive
Serpina3c (serine (or cysteine) peptidase inhibitor, clade A, member 3C) | 2 | 58.6 | 46.5 | inactive
Serpina3c (serine (or cysteine) peptidase inhibitor, clade A, member 3C) | 3 | 113 | 95.8 | inactive
Vmn1r63 (vomeronasal 1 receptor 63) | 1 | 56.3 | 43.8 | inactive
Vmn1r63 (vomeronasal 1 receptor 63) | 2 | 119 | 82.1 | inactive
Vmn1r63 (vomeronasal 1 receptor 63) | 3 | 66.1 | 81.8 | inactive
Or4c114 (olfactory receptor family 4 subfamily C member 114) | 1 | 64.2 | 62.2 | inactive
Or4c114 (olfactory receptor family 4 subfamily C member 114) | 2 | 53.4 | 39.4 | inactive
Or4c114 (olfactory receptor family 4 subfamily C member 114) | 3 | 60.7 | 87.4 | inactive
Neurod1 (neurogenic differentiation 1) | 1 | 111 | 107 | inactive
Neurod1 (neurogenic differentiation 1) | 2 | 83.6 | 91.3 | inactive
Neurod1 (neurogenic differentiation 1) | 3 | 79.4 | 110 | inactive
Luc7l (Luc7-like) | 1 | 59.9 | 92 | inactive
Luc7l (Luc7-like) | 2 | 104 | 72.7 | inactive
Luc7l (Luc7-like) | 3 | 140 | 44.9 | active
Abhd6 (abhydrolase domain containing 6) | 1 | 80.8 | 97.4 | inactive
Abhd6 (abhydrolase domain containing 6) | 2 | 105 | 86.9 | inactive
Abhd6 (abhydrolase domain containing 6) | 3 | 125 | 117 | active
Dok3 (docking protein 3) | 1 | 67.3 | 78.7 | inactive
Dok3 (docking protein 3) | 2 | 99.6 | 65.1 | inactive
Dok3 (docking protein 3) | 3 | 32.2 | 44.4 | inactive
Pdk2 (pyruvate dehydrogenase kinase, isoenzyme 2) | 1 | 65.8 | 65.6 | inactive
Dlat (dihydrolipoamide S-acetyltransferase) | 1 | 74.1 | 92.9 | inactive
Dlat (dihydrolipoamide S-acetyltransferase) | 2 | 161 | 90.4 | active
Dnajb3 (DnaJ heat shock protein family (Hsp40) member B3) | 1 | 94.6 | 75.3 | inactive
Dnajb3 (DnaJ heat shock protein family (Hsp40) member B3) | 2 | 121 | 90.4 | active
Dnajb3 (DnaJ heat shock protein family (Hsp40) member B3) | 3 | 41.8 | 48.3 | inactive
Crebbp (CREB binding protein) | 1 | 98.3 | 90.9 | inactive
Crebbp (CREB binding protein) | 2 | 112 | 71 | inactive
Crebbp (CREB binding protein) | 3 | 64.9 | 53.3 | inactive
Robo3 (roundabout guidance receptor 3) | 1 | 92.8 | 59.5 | inactive
Robo3 (roundabout guidance receptor 3) | 2 | 90.4 | 121 | inactive
Robo3 (roundabout guidance receptor 3) | 3 | 57.4 | 74.3 | inactive
